No constants are given. Whether binding was seen depends on the method and setting. Binding seen in cells or lysates may run through a third protein.
Biological target: transcriptional coactivator with PDZ-binding motif (TAZ) (human (endogenous in MDA-MB-231)) (UniProt Q9GZV5)
Assay: co-IP; endogenous proteins of MDA-MB-231 cells; pull-down samples with anti-TAZ antibody or anti-RhoA antibody, pre-immune mouse or rabbit IgG as controls; immunoblotting

Amino acid sequences for entries named in this document (tags omitted).
UniProt Q9GZV5: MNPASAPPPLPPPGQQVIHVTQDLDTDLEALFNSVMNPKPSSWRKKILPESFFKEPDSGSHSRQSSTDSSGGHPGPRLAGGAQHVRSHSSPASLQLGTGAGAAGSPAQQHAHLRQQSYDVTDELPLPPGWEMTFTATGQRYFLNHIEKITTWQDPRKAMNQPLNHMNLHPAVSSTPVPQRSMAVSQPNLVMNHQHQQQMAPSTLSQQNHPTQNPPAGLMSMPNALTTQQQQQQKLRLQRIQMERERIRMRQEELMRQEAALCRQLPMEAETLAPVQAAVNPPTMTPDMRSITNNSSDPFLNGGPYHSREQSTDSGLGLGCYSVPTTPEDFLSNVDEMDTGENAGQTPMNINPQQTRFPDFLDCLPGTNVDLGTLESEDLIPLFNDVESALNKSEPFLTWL
UniProt P61586: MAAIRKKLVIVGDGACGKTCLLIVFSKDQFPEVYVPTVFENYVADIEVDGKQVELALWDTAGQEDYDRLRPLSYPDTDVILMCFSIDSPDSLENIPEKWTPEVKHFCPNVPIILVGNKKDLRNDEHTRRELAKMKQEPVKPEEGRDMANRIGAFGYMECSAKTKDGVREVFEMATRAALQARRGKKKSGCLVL

Substance: RhoA, a small Rho GTPase protein (from UniProt P61586 1-193)
- binding: no binding

Reference: article PMC11106448
